These results are taken from the supplement of paper PMC10338343.

± gives the standard deviation. This is a selection; strong and weak results do not stand in their true shares. Many entries were measured with a wide error.

In this test the test system is MILI (PIWIL2) piRISC loaded with Kctd7 piRNA (26 nt). Kind of test: pre-steady-state target cleavage rate (min^-1); MIWI and MILI are mouse PIWI proteins and EfPiwi is from a freshwater sponge; tags in brackets are library labels; higher = faster piRNA-guided slicing of the target. Conditions: guide: Kctd7 piRNA 5'p-UGUUAAUCUCUCAGAGAAGGUGACAG; auxiliary factor: 500 nM mouse GTSF1. The gist of the method:
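Sequencing of uncleaved targets, normalised to depth and to weakly complementary targets, was the readout of this Cleave-'n-Seq assay. A transcribed, DNA-blocked target RNA library (0.1 nM) was mixed with 1 nM active affinity-purified piRISC carrying one synthetic guide, with or without 500 nM GTSF1 partner protein, in HEPES–potassium acetate buffer at 33 °C for 0–8 or 0–960 min. Three trials were pooled, k3 was capped at 0.0001 min^-1, and a burst-and-steady-state fit gave the pre-steady-state cleavage rate.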
Take UAGUGACACAACCUUCUCUGAGAGAUUAACA: the “pre-steady-state target cleavage rate” value was 0.155 ± 0.018. Turning to UAGUGACUCACCUUCUCUGAGUAGAUUAACA, the “pre-steady-state target cleavage rate” value stood at 0.00176 ± 0.0059. In the case of UAGUGACAGACCUUCUCUGAGACAUUUACA, the “pre-steady-state target cleavage rate” value stood at 0.000892 ± 0.0089.

Take UAGUGAGUCACCUUCUCUGACAGAUAAACA: the “pre-steady-state target cleavage rate” value was found to be 0.00183 ± 0.0087. As to UAGUGUGUGACCUUCUCUGAGAGAUAUUGA, the “pre-steady-state target cleavage rate” value amounted to 0.00155 ± 0.007. Next, UAGUGACACACCUUCUCUCAGAGAUUAUGA: 0.00858 ± 0.0045; UAGUGACAGUCCUUCUGACAGAGAUUAACA: 0.000607 ± 0.0087.

Regarding UAGUGACACACCUUCUCUGAGACUAUAAGA, the “pre-steady-state target cleavage rate” value is 0.000357 ± 0.017. On to UAGUGACAGACCUUCUCUCAGAGAUUAAGA, for which the “pre-steady-state target cleavage rate” value stood at 0.00122 ± 0.012. Next, UAGUGAGUGUGCUUCUCUGAGAGAUUUUGA: 0.000479 ± 0.014. Turning to UAGUGACAGACCUUCUGACAGAGAUUAUGA, the “pre-steady-state target cleavage rate” value came out at 0.000113 ± 0.072.

As to UAGUGACAGACCUUCUCUGAGAGAUUUUGA, the “pre-steady-state target cleavage rate” value was 0.0009 ± 0.012. Next, UAGUGACAGUCCAUCUCUGAGAGAUUAAGA: 0.0017 ± 0.0047. As to UAGUGACAGACCUUCUCUGAGAGAUUCAACA, the “pre-steady-state target cleavage rate” value was determined as 0.177 ± 0.04. Next, UAGUGACACAGGAUCUCUGAGAGAUUAUGA: 0.000214 ± 0.014. To UAGUCUGUCACCUUCUCUGAGAGAUUCAACA belongs 0.324 ± 0.061. Next, UAGUGAGUCACCUGCUCUGAGAGAUUAACA: 0.169 ± 0.018; UAGUGACAGUGCUACUCUGAGAGAUUUACA: 0.00147 ± 0.0052. For UAGUGACAGUGGUUCUCUGAGAUGAUUAACA, the “pre-steady-state target cleavage rate” value was 0.00146 ± 0.0035. Consider UAGUGACUCACCUUCUCUCUCAGAUUAAGA, for which the “pre-steady-state target cleavage rate” value amounted to 0.000676 ± 0.011. To UAGUGACAGUGGAAGAGACACAGAUUAAGA belongs 0.000145 ± 0.052. Take UAGUGACAGUGGUUCUGUGAGAGAUUAAGA: the “pre-steady-state target cleavage rate” value is 0.000418 ± 0.018. To UAGUGACACAGGUUCUCUGAGAGAUUAUGA belongs 0.00299 ± 0.0035; to UAGUGUGUCACCUUCUCUGUGACAUUAACA, 0.00266 ± 0.0049.

Consider UAGUGUGUCACCUUCUCUGAGAGAGUUAACA, for which the “pre-steady-state target cleavage rate” value was 0.259 ± 0.046. In the case of UAGUGACACACCUUCUCUGAGAGAUUAUGA, the “pre-steady-state target cleavage rate” value worked out at 0.0394 ± 0.012. Take UAGUGACAGUGGAAGAGAGAGAGAUCUAACA: the “pre-steady-state target cleavage rate” value came to 0.000133 ± 0.025.

As to UAGUGACAGACCUUCUCUGUAGAGAUUAACA, the “pre-steady-state target cleavage rate” value was 0.00145 ± 0.0066. To UAGUGUGUCUGGUUCUCUGAGAGAUUAAGA belongs 0.00173 ± 0.0057; to “UAGUGAGUCACCUUCUCUGACUCUAAUUGA [g11:g24:cont:t1A]”, 0.000626 ± 0.016. As for UAGUGACAGUGCUACUCUGAGUGAUUAACA, the “pre-steady-state target cleavage rate” value came out at 0.00187 ± 0.0022.

For the sequence UAGUGUGUCACCUUCUCUGACUGAUUAACA, the “pre-steady-state target cleavage rate” value came to 0.00183 ± 0.0061. In the case of UAGUGACAGUCCUUCUCAGAGUGAUUAACA, the “pre-steady-state target cleavage rate” value was found to be 0.00276 ± 0.0036. To UAGUGACAGUCCUUCUCUCACAGAUUAACA belongs 0.00149 ± 0.0064. Consider UAGUGACAGACCUUCUCUGAGUCAUUUUGA, for which the “pre-steady-state target cleavage rate” value was found to be 0.000836 ± 0.0074.

Consider UAGUGACUCACCUUCUCUCUCAGAUUUUGA, for which the “pre-steady-state target cleavage rate” value is 0.000176 ± 0.067. Next, UAGUGACAGUGGUUCUCAGAGUGAUUAACA: 0.00144 ± 0.0057; UAGUGACUCUGCUUCUCUGAGAGAUAUUGA: 0.000872 ± 0.0053; UAGUGACAGACCUUCUCUGACUCAUUUUGA: 0.000531 ± 0.019. To UAGUGACAGUCCUAGACUGAGAGAUUAACA belongs 0.00157 ± 0.005; to UAGUGACAGUCCUUGAGUGAGAGAUUAAGA, 0.000549 ± 0.014. To UAGUGACACACCUUCUCUGACUCAUUUUGA belongs 0.000852 ± 0.0094. UAGUGACUCACCAACUCUGAGAGAUUUUGA: the “pre-steady-state target cleavage rate” value worked out at 0.000304 ± 0.018. Next, UAGUGACAGUGGUUCUCUGAGAGAUUAAACA: 0.00202 ± 0.0023; UAGUGACAGUGGAAGAGUGAGCGAUUAACA: 0.000524 ± 0.011.

With UAGUGACAGUGGAACUCUGAGAGUUUUACA, the “pre-steady-state target cleavage rate” value was determined as 0.000355 ± 0.034. Regarding UAGUGACUCACCUUCUCUGAGAGCAUUAACA, the “pre-steady-state target cleavage rate” value was 0.144 ± 0.016.

For the sequence UAGUGACAGUGCUACUCUGAGAGUUUAACA, the “pre-steady-state target cleavage rate” value turned out to be 0.000981 ± 0.0042.

As for UAGUGACAGACGUUCUCUGACAGAUUAACA, the “pre-steady-state target cleavage rate” value was found to be 0.0031 ± 0.0037.

Take UAGUGACAGUGCUUCUCUGAGAGAUUACA: the “pre-steady-state target cleavage rate” value was determined as 0.00151 ± 0.0045. Take UAGUGACAGUGGAAGUCUGAGUGAUUAACA: the “pre-steady-state target cleavage rate” value came out at 0.000198 ± 0.013. To UAGUGUGUCACCUUCUCUGACUGAUAUUGA belongs 0.000359 ± 0.018; to UAGUCUGUCAGGAUCUCUGAGAGAUUAUGA, 0.00185 ± 0.0041; to UAGUGACAGACCUUCACUGAGUGAUUAACA, 0.00199 ± 0.0054. Consider “UAGUGAGUCACCUUCUCUGAGAGAUUAACG [g2:g24:cont:t1G]”, for which the “pre-steady-state target cleavage rate” value turned out to be 0.284 ± 0.021. Next, UAGUGACAGUGGAUCUCUGAGAGAUUAUACA: 0.000243 ± 0.02. Consider UAGUGAGUCACCUUCUGCUGAGAGAUUAACA, for which the “pre-steady-state target cleavage rate” value was determined as 0.264 ± 0.058. UAGUGACAGUGGAAGUCUGAGAGCUUAACA: the “pre-steady-state target cleavage rate” value was 0.000205 ± 0.013. On to UAGUGACAGUGCUUCUCUGUCAGAUUAACA, for which the “pre-steady-state target cleavage rate” value came to 0.00224 ± 0.0028. Next, UAGUGUGUCACCUUCUCUGACUCAUUAACA: 0.0019 ± 0.0048. For UAGUCUGUGUCCUUCUCUGAGAGAUAUUGA, the “pre-steady-state target cleavage rate” value is 0.000867 ± 0.0057. Turning to UAGUGAGUCACCUUCUCAGAGAGAUUUACA, the “pre-steady-state target cleavage rate” value worked out at 0.0954 ± 0.024. Next, UAGUGACAGUGGUUGUCUGUGAGAUUAACA: 0.00247 ± 0.0042. Regarding UAGUGACAGACCUUCUCAGAGAGAUUUUGA, the “pre-steady-state target cleavage rate” value is 0.00196 ± 0.0064.

In the case of UAGUGAGAUCACCUUCUCUGAGAGAUUAACA, the “pre-steady-state target cleavage rate” value came out at 0.178 ± 0.015.

As for UAGUGACAGUCCUUCUCUGAGAGAAAAACA, the “pre-steady-state target cleavage rate” value was found to be 0.000878 ± 0.0077. Turning to UAGUGACAGUGGAAGUCUGAGAGGUUAACA, the “pre-steady-state target cleavage rate” value was determined as 0.00125 ± 0.0031. Take UAGUGACUCACCUUCUCUCAGAGAUAUUGA: the “pre-steady-state target cleavage rate” value came to 0.000967 ± 0.011. Consider UAGUGUGAGUCCUUCUCUGAGAGAUAUUGA, for which the “pre-steady-state target cleavage rate” value is 0.00092 ± 0.008. As for UAGUGACAGUGCUUCUCUGAGAGAUUAUGA, the “pre-steady-state target cleavage rate” value was 0.00082 ± 0.005.

On to UAGUGACAGUGCUUCUCUGAGAGAAAAACA, for which the “pre-steady-state target cleavage rate” value came to 0.000781 ± 0.0092.
